Earlier results in patent US5504116A (Research Foundation of State University of New York, priority 1994, dated 1996).

How the values were obtained:
[1] = test system: sodium channel of rat cardiac ventricular myocyte; details: read-out: ED50 for blocking the sodium channel; cited from earlier work
[2] = continuous epidural anesthesia for labor; cited from earlier work

In the case of CCN(CC)CC(=O)Nc1c(C)cccc1C [lidocaine], the IC50 [1] is given as 500 µM and the “maternal serum concentration attained” value [2] is given as 2.5 µg/mL.
